{"source": "PubChem BioAssay AID652259 (Drosophila RNAi Screening Center, 2013)", "purpose": "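Knock-downs that push a Wingless-driven reporter up or down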 (primary screen)", "cell system": "Drosophila clone 8 imaginal disc epithelial cells", "reagents": "long dsRNA against Drosophila genes", "conditions": "pathway stimulated by co-transfected Wingless expression plasmid", "measurement": "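Firefly luciferase from a tcf-site Wingless reporter, measured alongside co-transfected Renilla luciferase that tracks transfection; pathway stimulated by a Wingless plasmid; the firefly-to-Renilla ratio is not deposited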", "direction": "firefly reporter light: higher = more Wg reporter light, before normalisation; Renilla control light: higher = more transfected or surviving cells", "hit rule": "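Strong candidates differ from their plate mean by at least two out of four per-plate statistical tests; weak candidates meet just one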", "meaning of the calls": "active = candidate regulator (raises or lowers reporter); inactive = not a candidate", "note": "In all, the deposit lists about 22,000 reagents; below is a random part of those with a known target gene and a result. Of all reagents, 233 (1.1%) were called active. 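Light values are raw, unnormalised plate reads; the ratio scores behind the reporter calls were not deposited.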 Entries without a mark were called inactive. A plus sign joins genes that one reagent is predicted to hit. Not given: the amount of reagent, the time to read-out, the dose of the treatment."}
{"gene":"swa","dsRNA":"DRSC18842","firefly reporter light, replicate 1":2512,"firefly reporter light, replicate 2":5456,"Renilla control light, replicate 1":752,"Renilla control light, replicate 2":1686}
{"gene":"CG9175","dsRNA":"DRSC03153","firefly reporter light, replicate 1":13467,"Renilla control light, replicate 1":6384}
{"gene":"CG12746","dsRNA":"DRSC12218","firefly reporter light, replicate 1":8396,"Renilla control light, replicate 1":2663}
{"gene":"Pnn","dsRNA":"DRSC16415","firefly reporter light, replicate 1":10539,"Renilla control light, replicate 1":3491}
{"gene":"RpL10Ab","dsRNA":"DRSC10798","firefly reporter light, replicate 1":5994,"Renilla control light, replicate 1":2186}
{"gene":"Dbct","dsRNA":"DRSC19951","firefly reporter light, replicate 1":3952,"firefly reporter light, replicate 2":8221,"Renilla control light, replicate 1":1187,"Renilla control light, replicate 2":3120}
{"gene":"mRpL12","dsRNA":"DRSC10467","firefly reporter light, replicate 1":4359,"Renilla control light, replicate 1":1373}
{"gene":"lbe","dsRNA":"DRSC16985","firefly reporter light, replicate 1":39370,"Renilla control light, replicate 1":7077}
{"gene":"Toll-7","dsRNA":"DRSC07563","firefly reporter light, replicate 1":7722,"firefly reporter light, replicate 2":7.23e5,"Renilla control light, replicate 1":2604,"Renilla control light, replicate 2":2.49e5}
{"gene":"Phm","dsRNA":"DRSC04639","firefly reporter light, replicate 1":13915,"Renilla control light, replicate 1":4220}
{"gene":"La","dsRNA":"DRSC03358","firefly reporter light, replicate 1":4281,"firefly reporter light, replicate 2":7776,"Renilla control light, replicate 1":428,"Renilla control light, replicate 2":2946}
{"gene":"rdgB","dsRNA":"DRSC20365","firefly reporter light, replicate 1":5868,"Renilla control light, replicate 1":1255}
{"gene":"CG14823","dsRNA":"DRSC10194","firefly reporter light, replicate 1":3536,"Renilla control light, replicate 1":2018}
{"gene":"CG1024","dsRNA":"DRSC12496","firefly reporter light, replicate 1":9426,"Renilla control light, replicate 1":3472}
{"gene":"CG1288","dsRNA":"DRSC12538","firefly reporter light, replicate 1":12739,"Renilla control light, replicate 1":2701}
{"gene":"Cul6","dsRNA":"DRSC09830","firefly reporter light, replicate 1":2982,"Renilla control light, replicate 1":1505}
{"gene":"p38a","dsRNA":"DRSC16743","firefly reporter light, replicate 1":18320,"Renilla control light, replicate 1":16714}
{"gene":"CG12128 + CG1407","dsRNA":"DRSC06446","firefly reporter light, replicate 1":10504,"Renilla control light, replicate 1":4210}
{"gene":"SCOT","dsRNA":"DRSC08186","firefly reporter light, replicate 1":14256,"Renilla control light, replicate 1":3994}
{"gene":"Nurf-38","dsRNA":"DRSC04629","firefly reporter light, replicate 1":2056,"firefly reporter light, replicate 2":4585,"Renilla control light, replicate 1":641,"Renilla control light, replicate 2":1341}
{"gene":"Tps1","dsRNA":"DRSC00269","firefly reporter light, replicate 1":11110,"Renilla control light, replicate 1":4490}
{"gene":"CG12539","dsRNA":"DRSC19470","firefly reporter light, replicate 1":18425,"Renilla control light, replicate 1":7338}
{"gene":"Adh + Adhr","dsRNA":"DRSC01862","firefly reporter light, replicate 1":6976,"Renilla control light, replicate 1":1946}
{"gene":"Adh + Adhr","dsRNA":"DRSC01863","firefly reporter light, replicate 1":3698,"firefly reporter light, replicate 2":7109,"Renilla control light, replicate 1":1575,"Renilla control light, replicate 2":3954}
{"gene":"CG18233","dsRNA":"DRSC10308","firefly reporter light, replicate 1":4920,"Renilla control light, replicate 1":2006}
